Measurements taken from the supplement of paper PMC10849652.
Some of the results follow.

Chains of the proteins cited; added tags and fusions are not shown. Lines headed by an entry give the natural chain unless they say otherwise; changes in a name come on top.
UniProt Q6N075: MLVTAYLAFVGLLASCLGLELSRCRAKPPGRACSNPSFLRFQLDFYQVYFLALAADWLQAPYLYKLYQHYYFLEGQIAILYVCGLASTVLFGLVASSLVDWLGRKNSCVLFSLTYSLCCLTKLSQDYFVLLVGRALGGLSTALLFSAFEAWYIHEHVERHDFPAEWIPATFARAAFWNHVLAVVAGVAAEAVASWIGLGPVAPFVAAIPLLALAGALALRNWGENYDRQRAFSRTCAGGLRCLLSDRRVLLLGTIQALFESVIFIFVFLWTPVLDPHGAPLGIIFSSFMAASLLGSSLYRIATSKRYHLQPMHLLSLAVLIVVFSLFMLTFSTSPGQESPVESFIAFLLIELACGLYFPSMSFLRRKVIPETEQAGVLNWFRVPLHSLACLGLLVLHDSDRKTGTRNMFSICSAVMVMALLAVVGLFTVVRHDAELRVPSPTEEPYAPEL
UniProt P56270: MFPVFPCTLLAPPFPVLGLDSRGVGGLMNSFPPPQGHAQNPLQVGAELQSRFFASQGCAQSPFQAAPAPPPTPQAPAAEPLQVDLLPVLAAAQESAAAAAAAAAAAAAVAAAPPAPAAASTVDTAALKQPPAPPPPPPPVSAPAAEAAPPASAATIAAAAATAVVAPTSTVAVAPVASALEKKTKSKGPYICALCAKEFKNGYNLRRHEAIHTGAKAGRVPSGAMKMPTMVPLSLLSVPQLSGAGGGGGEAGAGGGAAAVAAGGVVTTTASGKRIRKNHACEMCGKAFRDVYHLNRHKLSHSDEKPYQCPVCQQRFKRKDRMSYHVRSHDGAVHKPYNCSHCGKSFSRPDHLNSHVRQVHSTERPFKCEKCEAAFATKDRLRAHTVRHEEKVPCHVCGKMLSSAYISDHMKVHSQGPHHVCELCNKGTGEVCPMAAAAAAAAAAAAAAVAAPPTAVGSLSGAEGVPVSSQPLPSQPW
UniProt Q96RQ3: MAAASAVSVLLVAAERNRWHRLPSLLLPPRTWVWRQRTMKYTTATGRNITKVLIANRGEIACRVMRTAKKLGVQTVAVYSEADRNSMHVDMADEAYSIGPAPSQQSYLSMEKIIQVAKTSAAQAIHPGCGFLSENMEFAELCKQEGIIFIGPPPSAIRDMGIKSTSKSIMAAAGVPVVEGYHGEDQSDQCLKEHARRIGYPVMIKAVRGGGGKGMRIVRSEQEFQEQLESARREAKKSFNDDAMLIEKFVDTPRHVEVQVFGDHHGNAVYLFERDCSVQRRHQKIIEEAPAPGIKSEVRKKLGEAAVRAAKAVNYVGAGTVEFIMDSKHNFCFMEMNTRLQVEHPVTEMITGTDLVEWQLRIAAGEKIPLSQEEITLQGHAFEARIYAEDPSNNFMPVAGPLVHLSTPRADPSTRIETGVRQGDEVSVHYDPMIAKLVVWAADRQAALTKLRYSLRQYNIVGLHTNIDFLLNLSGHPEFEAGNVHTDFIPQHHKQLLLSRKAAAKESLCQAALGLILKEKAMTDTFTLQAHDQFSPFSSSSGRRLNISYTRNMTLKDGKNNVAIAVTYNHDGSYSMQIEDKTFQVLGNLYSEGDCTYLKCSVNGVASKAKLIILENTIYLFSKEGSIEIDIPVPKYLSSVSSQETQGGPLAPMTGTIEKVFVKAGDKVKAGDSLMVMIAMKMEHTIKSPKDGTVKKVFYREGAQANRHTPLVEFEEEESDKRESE
UniProt Q15648, whole entry, looked up: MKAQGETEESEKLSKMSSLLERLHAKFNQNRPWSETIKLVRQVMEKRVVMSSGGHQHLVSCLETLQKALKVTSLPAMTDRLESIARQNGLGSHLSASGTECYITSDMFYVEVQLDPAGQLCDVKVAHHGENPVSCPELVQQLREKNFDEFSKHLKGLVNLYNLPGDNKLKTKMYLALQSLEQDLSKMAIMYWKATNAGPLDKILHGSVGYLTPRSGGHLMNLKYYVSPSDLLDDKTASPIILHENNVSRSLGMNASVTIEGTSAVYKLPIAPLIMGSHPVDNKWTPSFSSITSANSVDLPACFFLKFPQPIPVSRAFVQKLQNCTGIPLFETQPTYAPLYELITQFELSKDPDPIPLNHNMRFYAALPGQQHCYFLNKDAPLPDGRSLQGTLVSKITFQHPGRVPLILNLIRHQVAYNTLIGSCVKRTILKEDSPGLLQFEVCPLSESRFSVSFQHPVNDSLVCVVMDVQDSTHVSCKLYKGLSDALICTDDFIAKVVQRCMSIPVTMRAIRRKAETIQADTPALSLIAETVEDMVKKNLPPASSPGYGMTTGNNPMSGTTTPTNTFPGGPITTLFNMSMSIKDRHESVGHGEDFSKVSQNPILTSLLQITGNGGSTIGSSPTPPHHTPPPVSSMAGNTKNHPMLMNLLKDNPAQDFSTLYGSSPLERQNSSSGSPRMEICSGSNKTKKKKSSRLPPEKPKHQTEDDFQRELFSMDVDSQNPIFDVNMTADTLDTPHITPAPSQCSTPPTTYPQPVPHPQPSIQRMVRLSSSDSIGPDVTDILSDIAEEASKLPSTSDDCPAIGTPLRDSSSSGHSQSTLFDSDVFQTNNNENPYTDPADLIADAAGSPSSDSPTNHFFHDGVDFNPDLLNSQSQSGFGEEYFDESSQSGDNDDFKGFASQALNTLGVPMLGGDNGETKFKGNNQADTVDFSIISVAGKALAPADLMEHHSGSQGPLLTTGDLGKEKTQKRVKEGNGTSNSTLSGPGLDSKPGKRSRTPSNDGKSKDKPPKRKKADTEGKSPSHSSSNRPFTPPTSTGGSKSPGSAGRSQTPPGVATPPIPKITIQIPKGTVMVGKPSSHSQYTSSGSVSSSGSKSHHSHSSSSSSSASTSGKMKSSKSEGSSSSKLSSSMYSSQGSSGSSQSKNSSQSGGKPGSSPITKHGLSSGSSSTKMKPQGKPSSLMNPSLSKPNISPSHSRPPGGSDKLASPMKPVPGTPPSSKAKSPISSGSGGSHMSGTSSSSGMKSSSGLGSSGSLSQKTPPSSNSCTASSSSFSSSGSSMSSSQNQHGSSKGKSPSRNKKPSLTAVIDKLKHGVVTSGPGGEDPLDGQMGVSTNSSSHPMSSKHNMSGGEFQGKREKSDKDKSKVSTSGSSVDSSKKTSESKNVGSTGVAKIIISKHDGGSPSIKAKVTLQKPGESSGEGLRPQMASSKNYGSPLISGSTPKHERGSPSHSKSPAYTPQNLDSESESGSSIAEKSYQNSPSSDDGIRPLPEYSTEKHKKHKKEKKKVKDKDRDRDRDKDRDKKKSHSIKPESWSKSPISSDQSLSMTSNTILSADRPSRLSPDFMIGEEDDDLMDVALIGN
UniProt Q8NE86: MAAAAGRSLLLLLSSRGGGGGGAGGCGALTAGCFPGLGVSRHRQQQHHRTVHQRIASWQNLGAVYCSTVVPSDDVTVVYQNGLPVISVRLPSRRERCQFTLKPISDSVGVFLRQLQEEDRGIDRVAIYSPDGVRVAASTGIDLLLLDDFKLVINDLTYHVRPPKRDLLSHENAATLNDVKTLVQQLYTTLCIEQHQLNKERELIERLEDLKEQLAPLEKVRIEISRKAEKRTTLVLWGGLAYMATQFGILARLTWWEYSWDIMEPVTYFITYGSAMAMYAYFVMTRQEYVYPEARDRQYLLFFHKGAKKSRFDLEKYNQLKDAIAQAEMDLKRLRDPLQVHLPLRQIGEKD
UniProt Q14728: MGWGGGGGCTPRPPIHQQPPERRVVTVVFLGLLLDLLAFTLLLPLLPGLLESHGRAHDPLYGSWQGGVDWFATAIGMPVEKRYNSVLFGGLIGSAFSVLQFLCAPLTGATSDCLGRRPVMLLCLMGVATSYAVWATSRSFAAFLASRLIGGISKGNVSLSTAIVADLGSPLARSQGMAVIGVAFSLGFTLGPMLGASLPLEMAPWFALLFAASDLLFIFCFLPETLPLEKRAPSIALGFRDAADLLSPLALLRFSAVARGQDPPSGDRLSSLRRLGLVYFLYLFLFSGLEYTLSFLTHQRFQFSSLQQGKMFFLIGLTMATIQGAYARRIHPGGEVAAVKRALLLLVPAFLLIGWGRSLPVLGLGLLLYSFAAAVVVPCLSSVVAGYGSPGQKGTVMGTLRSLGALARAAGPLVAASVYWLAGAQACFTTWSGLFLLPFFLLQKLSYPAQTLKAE
UniProt P23368: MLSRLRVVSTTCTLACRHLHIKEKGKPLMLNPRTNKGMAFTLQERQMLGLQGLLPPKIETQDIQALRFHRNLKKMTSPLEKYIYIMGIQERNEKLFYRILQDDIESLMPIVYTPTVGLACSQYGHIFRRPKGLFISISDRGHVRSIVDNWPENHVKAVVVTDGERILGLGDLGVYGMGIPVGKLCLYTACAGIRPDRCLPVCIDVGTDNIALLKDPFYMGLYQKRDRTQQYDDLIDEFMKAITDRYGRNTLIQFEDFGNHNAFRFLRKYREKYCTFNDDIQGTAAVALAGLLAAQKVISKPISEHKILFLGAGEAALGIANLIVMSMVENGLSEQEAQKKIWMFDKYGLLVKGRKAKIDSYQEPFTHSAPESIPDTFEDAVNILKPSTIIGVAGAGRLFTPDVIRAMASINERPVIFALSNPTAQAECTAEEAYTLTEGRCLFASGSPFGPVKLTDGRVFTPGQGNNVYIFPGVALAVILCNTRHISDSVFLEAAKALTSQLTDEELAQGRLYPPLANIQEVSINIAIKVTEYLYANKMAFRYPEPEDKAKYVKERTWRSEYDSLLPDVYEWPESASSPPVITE

What was measured:
Test in all cases: log2 fold change, soluble protein after heating vs DMSO (PISA); higher = thermal stabilisation; K562 lysate, 10 uM; active = over 0.2 and 3.5 SD of the protein, either way, in both replicates (recomputed)
[1] = compound: CCCS(=O)(=O)Nc1ccc(F)c(C(=O)c2c[nH]c3ncc(-c4ccc(Cl)cc4)cc23)c1F [vemurafenib]
In short: (§1)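 Thermal stability, expressed as log-two fold change relative to solvent controls, is given from duplicates. Crude K562 extract in PBS pH 7.4 with 1 mM MgCl2, at 1 mg/mL protein, was treated with 10 μM compound for 30 min and heated in aliquots for 3 min across 48°C-58°C. After pooling, adjustment to 0.5% NP-40 at 4°C and centrifugation at 21,000xg for 90 min, supernatant protein was measured by TMTpro 16plex LC-MS/MS with channel sums equalised.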

[2] = compound: CCCS(=O)(=O)Nc1ccc(F)c(C(=O)c2c[nH]c3ncc(Cl)cc23)c1F
In short: as §1

[3] = compound: CCN(CCCOc1ccc2c(Nc3cc(CC(=O)Nc4cccc(F)c4)[nH]n3)ncnc2c1)CCOP(=O)(O)O [barasertib]
In short: as §1

[4] = compound: CC[C@@H]1C(=O)N(C)c2cnc(Nc3ccc(C(=O)NC4CCN(C)CC4)cc3OC)nc2N1C1CCCC1
In short: as §1

[5] = compound: CC[C@@H]1C(=O)N(C)c2cnc(Nc3ccc(C(=O)N[C@H]4CC[C@H](N5CCN(CC6CC6)CC5)CC4)cc3OC)nc2N1C(C)C [volasertib]
In short: as §1

[6] = compound: CCn1c(C(=O)N(C2CC2)C2CC2)cc2c3c(ncn3C)c(Nc3cc(C)n(C)n3)nc21
In short: as §1

[7] = compound: CCn1cc(-c2ccnc3[nH]c(-c4cccc(CN(C)C)c4)cc23)c(-c2ccc(NC(=O)N(C)C)cc2)n1
In short: as §1

[8] = compound: CN1CCC(CNc2ccc3ncc(-c4cccc(OC(F)(F)F)c4)n3n2)CC1
In short: as §1

[9] = compound: CN1CCN(CCOc2cc(OC3CCOCC3)c3c(Nc4c(Cl)ccc5c4OCO5)ncnc3c2)CC1 [saracatinib]
In short: as §1

[10] = compound: CN1CCN(c2nc(C3=C(c4c[nH]c5ccccc45)C(=O)NC3=O)c3ccccc3n2)CC1 [sotrastaurin]
In short: as §1

[11] = compound: CN1CC[C@H](c2c(O)cc(O)c3c(=O)cc(-c4ccccc4Cl)oc23)[C@H](O)C1 [alvocidib]
In short: as §1

[12] = compound: CN1CCc2c(c3ccccc3n2Cc2ccc(C(=O)NO)cc2)C1 [Tubastatin A]
In short: as §1

[13] = compound: CNC(=O)C1=CC=CC=C1NC2=NC(=NC=C2Cl)NC3=C(C=C(C=C3)N4CCOCC4)OC
In short: as §1

[14] = compound: CNC(=O)c1ccc(Nc2ncc(C(F)(F)F)c(NCc3nccnc3N(C)S(C)(=O)=O)n2)cc1 [defactinib]
In short: as §1

[15] = compound: CNc1nc(-c2ccc3c(N)n[nH]c3c2)cc(N2C[C@@H](C(=O)NC3CCCCC3)CC[C@H]2C)n1
In short: as §1

[16] = compound: COC(=O)N[C@@H](C)CNc1nccc(-c2cn(C(C)C)nc2-c2cc(Cl)cc(NS(C)(=O)=O)c2F)n1 [encorafenib]
In short: as §1

[17] = compound: COC(=O)[C@H](CCSC)NC(=O)C1=C(C=C(C=C1)NC[C@H](CS)N)C2=CC=CC=C2
In short: as §1

[18] = compound: COc1cc(Nc2ncc3c(n2)-c2ccc(Cl)cc2C(c2c(F)cccc2OC)=NC3)ccc1C(=O)O [alisertib]
In short: as §1

[19] = compound: COc1cc2nc(-c3cc(F)ccc3O)nc(N[C@@H]3CNC[C@H]3C(C)(C)O)c2cc1OC
In short: as §1

[20] = compound: COc1cc2ncnc(Nc3ccc(F)c(Cl)c3)c2cc1OCCCN1CCOCC1 [gefitinib]
In short: as §1

Measured: log2 fold change

MFSD5 isoform 2 (UniProt Q6N075)
inactive: [1] -0.06 | [2] 0.079 | [3] 0.051 | [4] 0.194 | [5] 0.12 | [6] -0.034 | [7] 0.051 | [8] 0.036 | [9] 0.113 | [10] 0.034 | [11] -0.04 | [12] 0.019 | [13] 0.061 | [14] 0.032 | [15] 0.031 | [16] 0.07 | [17] -0.065 | [18] -0.077 | [19] -0.348 | [20] -0.05

MDN1 (UniProt Q9NU22)
inactive: [1] 0.023 | [2] 0.016 | [3] 0.034 | [4] -0.033 | [5] -0.066 | [6] -0.023 | [7] -0.175 | [8] 0.099 | [9] 0.028 | [10] 0.016 | [11] 0.001 | [12] -0.057 | [13] -0.004 | [14] 0.054 | [15] -0.012 | [16] 0.018 | [17] 0.095 | [18] -0.001 | [19] 0.024 | [20] 0.015

MAZ isoform 2 (UniProt P56270)
inactive: [1] -0.038 | [2] 0.051 | [3] -0.021 | [4] 0.051 | [5] 0.055 | [6] 0.034 | [7] -0.007 | [8] 0.092 | [9] -0.062 | [10] -0.039 | [11] -0.038 | [12] 0.019 | [13] 0.094 | [14] -0.028 | [15] 0.12 | [16] 0.002 | [17] 0.003 | [18] 0.031 | [19] 0.024 | [20] -0.014

MCCC1 (UniProt Q96RQ3)
inactive: [1] 0.065 | [2] 0.009 | [3] 0.015 | [4] 0.005 | [5] -0.034 | [6] -0.025 | [7] 0.139 | [8] -0.059 | [9] 0.028 | [10] 0.054 | [11] 0.063 | [12] -0.036 | [13] 0.003 | [14] -0.002 | [15] -0.025 | [16] 0.012 | [17] -0.057 | [18] 0 | [19] 0.001 | [20] 0.017

MED1 (UniProt Q15648)
inactive: [1] 0.033 | [2] 0.031 | [3] -0.003 | [4] 0.049 | [5] -0.013 | [6] -0.016 | [7] 0.008 | [8] -0.032 | [9] 0.03 | [10] -0.026 | [11] -0.01 | [12] -0.072 | [13] 0.011 | [14] -0.038 | [15] 0.047 | [16] 0.055 | [17] -0.036 | [18] -0.011 | [19] 0 | [20] 0.012

MCU (UniProt Q8NE86)
inactive: [1] 0.011 | [2] 0.017 | [3] 0.077 | [4] -0.085 | [5] -0.033 | [6] -0.049 | [7] -0.062 | [8] -0.099 | [9] 0.04 | [10] 0.017 | [11] 0.011 | [12] 0.045 | [13] 0.026 | [14] 0.037 | [15] -0.067 | [16] 0.016 | [17] -0.035 | [18] 0.01 | [19] -0.063 | [20] -0.091

MFSD10 (UniProt Q14728)
inactive: [1] 0.185 | [2] 0.082 | [3] 0.025 | [4] 0.144 | [5] -0.019 | [6] -0.055 | [7] -0.198 | [8] 0.162 | [9] -0.054 | [10] -0.056 | [11] -0.076 | [12] 0.122 | [13] 0.004 | [14] 0 | [15] 0.048 | [16] 0.124 | [17] -0.006 | [18] -0.033 | [19] 0.022 | [20] 0.054

ME2 (UniProt P23368)
inactive: [1] -0.011 | [2] 0.006 | [3] 0.004 | [4] 0.011 | [5] 0.039 | [6] 0.024 | [7] -0.001 | [8] 0.067 | [9] -0.031 | [10] 0.008 | [11] -0.006 | [12] 0.021 | [13] 0.001 | [14] 0.02 | [15] 0.062 | [16] -0.014 | [17] 0 | [18] 0.005 | [19] 0.012 | [20] -0.004
